Assay results: paper PMC4537050, “A long pentraxin-3-derived pentapeptide for the therapy of FGF8b-driven steroid hormone-regulated cancers” (Oncotarget, 2015)
No constants are given. Whether binding was seen depends on the method and setting.

Target: Human recombinant FGF8b (fibroblast growth factor-8b) (human)
Test: SPR; BIAcore X-100; FGF8b (20 μg/ml in 10 mM sodium acetate, pH 6.0) or other FGFs (10 mM sodium acetate at optimal pH) immobilised on a CM5 sensor chip by EDC/NHS; peptide injected (ARPCA 8 μM to 2000 μM), 4 min at 30 μl/min, 10 min dissociation, in HBS; equilibrium values fitted with the Langmuir equation for monovalent binding; both purified

- binding: no binding
Binder: APCRA (N-terminal acetyl; C-terminal amide) [Ac-APCRA-NH2, partially scrambled peptide]
